Measured values as given in ChEMBL document CHEMBL5032503, “Propranolol Activates the Orphan Nuclear Receptor TLX to Counteract Proliferation and Migration of Glioblastoma Cells” (J Med Chem, 2021).

Tested on: T98G
Assay: cells
Conditions: Homo sapiens, 72 h

IC50: 75 µM
Structure (SMILES): CC(C)NCC(O)COc1cccc2ccccc12 (racemic) [PROPRANOLOL]
